Assay results taken from publication PMC9963684, “Meroterpenoids with Immunosuppressive Activity from Edible Fungus Craterellus odoratus” (Molecules, 2023).

Tested on: LPS-induced B-cell proliferation (spleen cells)
Assay: LPS-induced B-cell proliferation ([3H]-thymidine uptake)
Assay type: cell-based, mouse
Conditions: SI = CC50/IC50
Procedure: Female BALB/c mice were sacrificed by cervical dislocation, and the spleens were removed aseptically. Mononuclear cell suspensions were prepared after cell debris and clumps were removed. Erythrocytes were depleted with ammonium chloride buffer solution. Lymphocytes were washed and resuspended in RPMI-1640 medium supplemented with 10% FBS, penicillin (100 U/mL), and streptomycin ([…]).
Fresh spleen cells were obtained from female BALB/c mice (18–20 g). The 5 × 10^5 spleen cells were cultured at the same conditions as those mentioned above. The cultures, in the presence or absence of various concentrations of compounds, were stimulated with 5 µg/mL of concanavalin A (ConA) or 10 µg/mL of lipopolysaccharide (LPS) to induce T-cells’ or B-cells’ proliferative responses, respectively. Proliferation was assessed in terms of uptake of [^3H]-thymidine during 8 h of pulsing with 25 µL/well of [^3H]-thymidine, and then cells were harvested onto glass fiber filters. The incorporated radioactivity was counted using a Beta scintillation counter (MicroBeta Trilux; PerkinElmer Life Sciences, Waltham, MA, USA). Cells treated without any stimuli were used as a negative control. The immunosuppressive activity of each compound was expressed as the concentration of compound that inhibited ConA-induced T-cell proliferation or LPS-induced B-cell proliferation to 50% (IC50) of the control value. […]

| SMILES | LPS-Induced B-Cell Proliferation SI |
| --- | --- |
| CC1=CCC2C(C)(C)CCCC2(C)C1CC12OC1C(=O)C(Cc1c(O)cc(CC(C)O)oc1=O)=CC2O (centres unmarked) [Compound 1, craterodoratin T] | >7.25 |
| CC1=CC[C@H]2C(C)(C)CCC[C@]2(C)[C@H]1C[C@@]12O[C@@H]1[C@H](O)C(CO)=C[C@H]2O [Compound 3, craterellin A] | >2.00 |
